Results reported in patent US20110262365A1 (priority 2008, published 2011).
At least one structure is not confirmed: it was looked up by name or label, or the drawing left a doubt.

System: skin of the subject
Experiment: Intradermal skin test for hypersensitivity to female reproductive hormones, case reports
Type: in vivo, human
Description: The skin test included the use of three fractions of estrogen (E1, E2 and E3) and progesterone (P), along with suitable controls. Each hormone solution was intradermally administered at a volume of 20-160 μl.
Skin test method using estriol, estrone, estradiol and/or progesterone and monitoring the immediate, late and delayed immuno-reaction to the injected hormones
1. The hormones (Table 1) diluted in solvents (Table 2) and controls (Table 3) in the above described dosages were administered intradermally into subjects.
2. Timing of intradermal administration and evaluation of the skin reaction was dependent on the tested subject.
(i) In case of fertile woman: Intradermal administration of the hormones/controls initiated at the luteal phase of menstrual cycle;
Tracking (evaluation of skin reaction) was after 20 minutes, after 48 hours and daily during the next 30 day (or a complete menstrual cycle).
(ii) Other Cases (non-fertile subjects): Intradermal administration of the hormones/controls initiated at any time;
Tracking (evaluation of skin reaction) was after 20 minutes, after 48 hours and daily during the next 7 day.
3. Measurement of wheal diameter—The wheal is formed on the skin in response to the intradermal administration of the hormone. Since the wheal responses are rarely regular or circular the wheal diameter is calculated using the following formula I.
wheal diameter=(D+d)/2 Formula I: […]
where D is the maximum diameter and d is perpendicular diameter.
4. Comparison with the controls was as follows:
(i) In case of a negative reaction to histamine (wheal diameter smaller than 5 mm), the result indicates Familial Dysautonomia disease (the subject is advised to seek other treatment);
(ii) In case of a positive reaction to saline (wheal diameter equals or larger than 5 mm), the test should be repeated;
(iv) In case of a similar or smaller reaction (wheal diameter) as compared to solvent reaction, there is no sensitivity to the tested hormone and desensitization is optional;
(v) Exception—In case the skin reaction (wheal diameter) is larger than 20 mm, the subject should not be treated and is referred to testing of cancer, systemic auto-immune diseases and other serous diseases.
Following is a description of several cases of subjects which were diagnosed and treated according to the method of some embodiments of the invention. The concentrations of hormones used in the description of the following cases 1-7 and in Table 9 below were as follow:
E1 (Estrone)—3 mM (millimole/Liter); 0.811 grams/liter;
E2 —(estradiol)—1 mM (millimole/Liter); 0.3565 grams/liter;
E3 (estriol)—3 mM (millimole/Liter); 0.86514 grams/liter;
P (progesterone)—1 mM (millimole/Liter); 0.3144 grams/liter;

C[C@]12CC[C@@H]3c4ccc(O)cc4CC[C@H]3[C@@H]1CCC2=O [estrone, Estrone]
Skin test result, Case 2 (person one, habitual abortions and severe PMS): positive delayed-type hypersensitivity reaction | Skin test result, Case 3 (person two, habitual abortions and severe PMS): delayed-type hypersensitivity reaction | Skin test result, Case 6 (person, menopausal syndrome, severe hot flashes): Hypersensitivity (delayed type after 48 hours and 5 days) | Skin test result, Case 7 (person, menopause, severe hot flashes): delayed-type (after 48 hours and 6 days) hypersensitivity reaction | Skin test result, Case 5 (person, premenopausal syndrome, severe hot flashes and night sweats): delayed-type hypersensitivity reaction (after 48 hours) | Skin test result, Case 4 (person, recurrent habitual abortions and severe PMS): delayed-type hypersensitivity reaction
